In article PMC10937267 one finds binding data, which are given here for 1 substance.

Results are given in words; binding and its absence hold for the method and conditions named. Binding seen in cells or lysates may run through a third protein. These calls come from enrichment with a bait or labelling near it, and not all partners need be listed.

This assay has as its target T1, Keratin 80 (human (endogenous in A549)) (UniProt Q6KB66).
T1 sequence: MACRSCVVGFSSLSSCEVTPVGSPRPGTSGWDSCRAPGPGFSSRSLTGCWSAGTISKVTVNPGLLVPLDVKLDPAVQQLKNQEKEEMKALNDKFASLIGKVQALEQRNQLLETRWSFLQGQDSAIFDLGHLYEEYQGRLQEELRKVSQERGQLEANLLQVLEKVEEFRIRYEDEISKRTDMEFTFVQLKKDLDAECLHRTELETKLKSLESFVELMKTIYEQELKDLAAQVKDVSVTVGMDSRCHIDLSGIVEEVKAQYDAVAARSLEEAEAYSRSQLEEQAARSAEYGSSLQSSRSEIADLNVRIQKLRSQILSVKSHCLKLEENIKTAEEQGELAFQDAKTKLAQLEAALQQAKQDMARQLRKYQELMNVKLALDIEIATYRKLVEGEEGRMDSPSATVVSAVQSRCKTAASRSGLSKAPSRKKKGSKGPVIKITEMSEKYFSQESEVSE
The assay can be described thus: affinity purification with mass spectrometry; IP-MS of KRT80 'in LUAD'; cell line and antibody not stated; 206 interacting proteins listed.

On to “Valosin-containing protein (from UniProt P55072 1-806)”, for which the binding result is “binds”.
